{
  "source": "patent US10781472B2",
  "about": "“Systems and methods for determining cyclic nucleotide concentration and related pathway activation” (PROMEGA CORPORATION, priority 2005, dated 2020)",
  "key": {"[1]": {"test_system": "adenylyl cyclase", "assay": "Forskolin stimulated adenylyl cyclase activity in DRD1-D293 plasma membrane preparations", "type": "biochemical, human", "conditions": "1 μg DRD1-D293 plasma membranes (FIG. 9)"}, "[2]": {"test_system": "adenylyl cyclase", "assay": "Adenylyl cyclase activation in D293 cells, PKA/Kinase-Glo luminescence", "type": "cell-based, human", "conditions": "15 min (FIG. 3)"}},
  "note": "At least one compound was matched to its structure with a doubt left.",
  "data": [
    {"molecule": "C=C[C@@]1(C)CC(=O)[C@]2(O)[C@@]3(C)[C@@H](O)CCC(C)(C)[C@@H]3[C@H](O)[C@H](OC(C)=O)[C@@]2(C)O1", "note": "[forskolin]", "values": [
      {"measurement": "luminescence as forskolin concentration increases (adenylyl cyclase activity)", "setting": "[1]", "value": "luminescence decreases"},
      {"measurement": "luminescence as forskolin concentration increases (adenylyl cyclase activity)", "setting": "[2]", "value": "luminescence decreases"}
    ]}
  ]
}
